The text below walks through data of patent publication US7179832B2, “Glycogen synthase kinase 3β inhibitor, composition and process for the preparation thereof” (Crystalgenomics, Inc., priority 2003, dated 2007).

Sequences of proteins named here, by UniProt entry; tags and fusion partners are left off.
UniProt P49841, whole entry: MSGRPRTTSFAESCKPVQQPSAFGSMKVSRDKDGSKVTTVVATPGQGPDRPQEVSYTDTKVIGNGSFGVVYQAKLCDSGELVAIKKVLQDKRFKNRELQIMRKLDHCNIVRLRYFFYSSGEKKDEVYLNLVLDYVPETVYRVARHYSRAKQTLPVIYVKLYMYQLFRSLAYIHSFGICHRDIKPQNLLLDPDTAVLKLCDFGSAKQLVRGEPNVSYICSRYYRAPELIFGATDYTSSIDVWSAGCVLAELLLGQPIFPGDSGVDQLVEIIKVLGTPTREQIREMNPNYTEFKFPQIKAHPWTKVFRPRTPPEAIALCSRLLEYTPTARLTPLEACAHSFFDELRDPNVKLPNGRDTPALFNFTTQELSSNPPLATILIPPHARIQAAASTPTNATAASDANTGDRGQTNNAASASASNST

Structures were worked out from names or drawings and are uncertain. A value given as a limit tells only on which side of the number the result lay.

As a reminder, the IC50 is the concentration that gives 50% inhibition. A low value points to greater potency in that assay.

This experiment addresses GSK-3β (Homo sapiens, UniProt P49841). The experiment can be described thus: Assay for GSK-3β inhibiting activity (32P-ATP, phospho-CREB peptide substrate, filter paper, CPM). The settings on record: 100 nM GSK-3β protein, 100 μM phospho-CREB peptide, 100 μM ATP, 30° C. for 1 hour.
As to `CC(=O)Nc1ccc(NCCNC(=O)c2ccc(O)c3[nH]c(-c4ccc(F)cc4Cl)nc23)nc1`, the IC50 was greater than 1000 nM.

For `CC(=O)Nc1ccc(NCCNC(=O)c2ccc(O)c3[nH]c(-c4ccc(Cl)cc4)nc23)nc1`, the IC50 was greater than 5000 nM.

In turn, `CC(=O)Nc1ccc(NCCNC(=O)c2ccc(O)c3[nH]c(-c4ccc(F)cc4)nc23)nc1` registered an IC50 greater than 1000 nM.

`O=C(NCCNc1ccc([N+](=O)[O-])cn1)c1ccc(O)c2[nH]c(-c3ccc(F)cc3Cl)nc12` came in with an IC50 of 400 nM.

With `Nc1ccc(NCCNC(=O)c2ccc(O)c3[nH]c(-c4ccc(Cl)cc4)nc23)nc1`, the IC50 was greater than 1000 nM.

The compound `O=C(NCCNc1ccc([N+](=O)[O-])cn1)c1ccc(O)c2[nH]c(-c3ccc(F)cc3)nc12` showed an IC50 of 200 nM.

Compound `CCN(CC)C1CCN(c2ccc(CCNC(=O)c3ccc(O)c4[nH]c(-c5ccc(F)cc5)nc34)cc2)C1` (stereo not shown) registered an IC50 greater than 1000 nM.
